Test results reported in paper PMC10620125.
Results are given in words; binding and its absence hold for the method and conditions named. In cells and extracts the contact can be indirect. Some entries that bind do so weakly or less than the wild type.

Amino acid sequences for entries named in this document (tags omitted).
UniProt P01106: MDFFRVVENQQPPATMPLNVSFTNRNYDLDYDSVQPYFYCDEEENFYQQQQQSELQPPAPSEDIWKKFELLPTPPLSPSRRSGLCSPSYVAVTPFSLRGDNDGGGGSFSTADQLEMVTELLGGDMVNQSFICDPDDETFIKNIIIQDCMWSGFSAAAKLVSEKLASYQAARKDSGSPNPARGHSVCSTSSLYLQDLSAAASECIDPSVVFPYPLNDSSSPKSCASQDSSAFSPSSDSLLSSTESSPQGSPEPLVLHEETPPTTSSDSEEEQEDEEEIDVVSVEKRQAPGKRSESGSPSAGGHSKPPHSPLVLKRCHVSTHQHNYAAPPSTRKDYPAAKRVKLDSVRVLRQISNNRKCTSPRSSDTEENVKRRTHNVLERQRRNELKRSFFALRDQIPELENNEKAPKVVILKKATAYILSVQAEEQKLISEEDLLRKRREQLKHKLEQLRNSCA
UniProt Q96KQ7: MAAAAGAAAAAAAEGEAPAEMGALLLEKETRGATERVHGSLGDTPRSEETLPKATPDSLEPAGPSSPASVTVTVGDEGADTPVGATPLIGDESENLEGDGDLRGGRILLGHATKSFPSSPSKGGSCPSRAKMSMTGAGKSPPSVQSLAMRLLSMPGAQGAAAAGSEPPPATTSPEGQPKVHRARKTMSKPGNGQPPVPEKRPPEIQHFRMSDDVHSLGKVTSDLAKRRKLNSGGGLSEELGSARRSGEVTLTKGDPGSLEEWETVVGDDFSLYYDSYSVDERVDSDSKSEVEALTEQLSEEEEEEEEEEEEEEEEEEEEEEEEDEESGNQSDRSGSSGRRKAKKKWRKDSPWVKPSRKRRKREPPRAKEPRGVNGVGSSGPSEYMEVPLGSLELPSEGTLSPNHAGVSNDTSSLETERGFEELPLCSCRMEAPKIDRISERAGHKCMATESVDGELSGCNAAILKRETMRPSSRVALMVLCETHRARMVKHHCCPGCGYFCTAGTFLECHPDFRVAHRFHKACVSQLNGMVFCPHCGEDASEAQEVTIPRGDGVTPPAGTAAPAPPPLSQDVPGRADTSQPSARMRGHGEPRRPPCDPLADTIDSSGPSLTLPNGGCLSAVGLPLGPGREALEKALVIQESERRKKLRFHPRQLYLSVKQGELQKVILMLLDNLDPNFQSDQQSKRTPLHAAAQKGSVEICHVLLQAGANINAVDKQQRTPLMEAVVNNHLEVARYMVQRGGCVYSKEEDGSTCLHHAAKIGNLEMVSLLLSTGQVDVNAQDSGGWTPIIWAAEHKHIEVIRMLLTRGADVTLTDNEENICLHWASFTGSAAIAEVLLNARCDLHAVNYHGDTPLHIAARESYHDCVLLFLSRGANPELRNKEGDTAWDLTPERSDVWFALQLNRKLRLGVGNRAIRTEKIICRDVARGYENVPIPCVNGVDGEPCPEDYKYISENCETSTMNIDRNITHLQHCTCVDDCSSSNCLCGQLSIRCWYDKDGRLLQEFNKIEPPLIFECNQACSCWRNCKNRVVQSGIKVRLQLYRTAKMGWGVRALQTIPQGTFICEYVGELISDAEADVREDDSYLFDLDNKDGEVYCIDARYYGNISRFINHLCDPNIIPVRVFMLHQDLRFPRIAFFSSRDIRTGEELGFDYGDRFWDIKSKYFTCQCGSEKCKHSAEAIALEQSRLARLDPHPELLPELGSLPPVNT

Target: c‐Myc (human (endogenous in BEL7402)) (UniProt P01106)
Assay: proximity ligation; Duolink PLA mouse/rabbit kit on BEL7402 cells fixed with 4% paraformaldehyde and permeabilised with 0.1% Triton-X; primary antibodies for c-Myc and G9a overnight at 4 °C; single antibody controls; also G9a-depleted (shEHMT2) against non-targeting control cells, with reduced signal

- binding: binds
Substance: Histone‐lysine N‐methyltransferase EHMT2 (G9a) (from UniProt Q96KQ7 1-1210)
